The target in this test is Sig7-Fc (Homo sapiens, UniProt Q9Y286). The test can be described thus: COIN-CaR-nMS. To be noted: N-glycan natural libraries and purified oligosaccharides; pH 6.9. An excerpt:
For most glycosylated GBPs, glycan binding measurements by nMS are challenging because the heterogeneity (micro- and macroheterogeniety) of GBP species makes quantifying the free and ligand-bound glycoforms difficult. As a result, detection of glycan ligands of glycosylated GBPs is usually performed using CaR-nMS. In CaR-nMS, glycan ligands bound (noncovalently) to a GBP are released as ions in the gas phase by collisional activation of the GBP-glycan complexes and detected. The results of CaR-nMS screening performed on glycan libraries of known concentrations enable GBP-glycan affinity rankings to be constructed from the relative abundances of released ligands. Generating titration curves from the relative abundances of released ligands in CaR-nMS experiments is generally not possible due to tip-to-tip variability in released ligand signal. The COIN approach enables quantification with CaR-nMS (COIN-CaR-nMS). […] Because PL dissociates to free P and L in the COIN-CaR-nMS experiment, Ft is calculated from eq 14 [drawing 19] […]
COIN-CaR-nMS measurements were also performed on SNA in the presence of two ligands (G21 and G23) at varying relative concentrations—G21 (30 μM) and G23 (10 nM–10 μM). Importantly, the measured Kd were insensitive to the relative concentrations (Table S7). […]
The time-resolved glycan concentrations were calculated from the known affinity (K d) of the […]

By UniProt entry, the sequences of proteins in these tests, tags left out. Residues count along the entry.
UniProt Q9Y286, 19-345 limits assumed: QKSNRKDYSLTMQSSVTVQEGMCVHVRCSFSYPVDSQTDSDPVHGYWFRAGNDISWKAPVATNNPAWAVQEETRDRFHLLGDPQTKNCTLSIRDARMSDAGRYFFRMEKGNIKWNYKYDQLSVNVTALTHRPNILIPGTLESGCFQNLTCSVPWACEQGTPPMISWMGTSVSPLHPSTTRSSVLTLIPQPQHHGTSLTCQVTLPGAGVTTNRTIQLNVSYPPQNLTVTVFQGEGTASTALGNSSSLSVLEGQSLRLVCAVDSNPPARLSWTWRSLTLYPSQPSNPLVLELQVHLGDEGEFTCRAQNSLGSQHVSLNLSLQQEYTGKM

Molecules are shown by their SMILES. The structures given here were assigned with low confidence; some may be wrong.

In the case of `CC(=O)N[C@H]1[C@H](O[C@@H]2[C@H](O[C@]3(C(=O)O)C[C@H](O)[C@@H](NC(C)=O)[C@H]([C@H](O)[C@@H](CO)O[C@]4(C(=O)O)C[C@H](O)[C@@H](NC(C)=O)[C@H]([C@H](O)[C@@H](CO)O[C@]5(C(=O)O)C[C@H](O)[C@@H](NC(C)=O)[C@H]([C@H](O)[C@H](O)CO)O5)O4)O3)[C@@H](O)[C@H](O[C@H]3[C@H](O)[C@@H](O)C(O)O[C@@H]3CO)O[C@@H]2CO)O[C@H](CO)[C@H](O)[C@@H]1O[C@@H]1O[C@H](CO)[C@H](O)[C@H](O)[C@H]1O` (stereo partly shown), the Kd result is on record as “NQ”.
